Data source: PubChem BioAssay AID493246 (Drosophila RNAi Screening Center, 2011)
The screen tested about 21,000 reagents; this is a random part of those with a known target gene and a result. Of all reagents, 429 (2%) got an active call. 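Values are raw and not normalised between plates; calls rest on per-plate z-scores that were not deposited.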 Unmarked entries are inactive. Reagents against one gene are numbered here. Names joined by + are all predicted targets of the reagent. Not given: the amount of reagent, the time to read-out.

Aim: 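Genome-wide search for dsRNAs that reduce cell number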 (primary screen)
Cells: Drosophila Kc and S2R+ cells
Reagent: long dsRNA against Drosophila genes
Measured: 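Raw, unnormalised count of remaining cells in each well; per-plate z-scores of cell number underlie the calls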
Scale: Kc cell number and S2R+ cell number: higher = more cells remaining
Rule for the call: 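Counted as a hit if cell number falls by a z-score of at least 3 within its plate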

gene	dsRNA no.	Kc cell number, rep 1	Kc cell number, rep 2	S2R+ cell number, rep 1	S2R+ cell number, rep 2
CG5823	1	1.51e6	1.58e6	1.14e6	1.22e6
CG31279	1	1.42e6	1.50e6	1.01e6	1.11e6
CG31810	1	1.45e6	1.55e6	9.26e5	1.10e6
CG31191	1	1.50e6	1.52e6	1.07e6	9.91e5
CG31191	2	1.18e6	1.15e6	1.10e6	1.23e6
CG31191	3	1.53e6	1.50e6	8.66e5	9.88e5
CG14416	1	1.56e6	1.60e6	1.04e6	1.19e6
YME1L (YME1 like ATPase)	1	1.18e6	1.25e6	9.90e5	1.11e6
tyn (trynity)	1	1.45e6	1.47e6	9.82e5	1.13e6
CG13126	1	1.57e6	1.66e6	1.39e6	1.51e6
Sox15 (Sox box protein 15)	1	1.38e6	1.48e6	9.42e5	1.11e6
TfIIEalpha (Transcription factor IIEalpha)	1	1.35e6	1.48e6	1.25e6	1.20e6
PH4alphaSG2 (prolyl-4-hydroxylase-alpha SG2)	1	1.45e6	1.40e6	9.91e5	1.11e6
CtIP (CTBP-interacting protein)	1	1.48e6	1.64e6	1.33e6	1.42e6
RpS15Ab + RpS15Aa	1	9.90e5	1.02e6	7.87e5	9.01e5
RpS15Ab + RpS15Aa	2	9.84e5 (active)	9.76e5	7.31e5	8.24e5
CG15021	1	1.72e6	1.61e6	1.14e6	1.28e6
AcCoAS (Acetyl Coenzyme A synthase)	1	1.34e6	1.40e6	9.97e5	1.11e6
AcCoAS (Acetyl Coenzyme A synthase)	2	1.57e6	1.62e6	1.18e6	1.28e6
CG14805	1	1.50e6	1.47e6	1.04e6	1.11e6
Qsox3 (Quiescin sulfhydryl oxidase 3)	1	1.27e6	1.30e6	1.02e6	1.14e6
CG10660	1	1.47e6	1.43e6	8.73e5	1.03e6
CG13130 (retired record)	1	1.58e6	1.56e6	1.09e6	1.24e6
CG3294	1	1.17e6	1.32e6	7.36e5	6.13e5
BBS9 (Bardet-Biedl syndrome 9)	1	1.66e6	1.83e6	1.45e6	3.66e5
TotA (Turandot A)	1	1.36e6	1.34e6	9.84e5	1.09e6
ball (ballchen)	1	1.38e6	1.39e6	8.17e5	9.38e5
NdufV3 (NADH:ubiquinone oxidoreductase subunit V3)	1	1.93e6	1.70e6	1.17e6	1.32e6
comm3	1	1.52e6	1.58e6	1.27e6	1.40e6
comm3	2	1.57e6	1.58e6	1.18e6	1.36e6
comm3	3	1.41e6	1.42e6	1.21e6	1.35e6
CG3534	1	1.47e6	1.52e6	1.22e6	1.30e6
ry (rosy)	1	1.58e6	1.64e6	1.38e6	1.44e6
CG7768	1	1.45e6	1.50e6	1.24e6	1.27e6
Ir60d (Ionotropic receptor 60d)	1	1.57e6	1.56e6	1.26e6	1.39e6
RPA2 (Replication protein A2)	1	1.24e6	1.36e6	1.01e6	1.03e6
Cdk8 (Cyclin-dependent kinase 8)	1	1.19e6	1.25e6	1.16e6	8.79e5
CG2111	1	1.64e6	1.64e6	1.03e6	1.16e6
CG12947	1	1.38e6	1.44e6	1.31e6	1.41e6
CASK	1	1.32e6	1.28e6	1.02e6	1.15e6
CASK	2	1.47e6	1.52e6	1.16e6	1.16e6
CASK	3	1.32e6	1.43e6	9.89e5	1.08e6
AstC-R1 (Allatostatin C receptor 1)	1	1.54e6	1.72e6	1.45e6	1.57e6
fu (fused)	1	1.34e6	1.39e6	8.97e5	1.01e6
CG31776	1	1.53e6	1.43e6	1.16e6	1.29e6
Ipo9 (Importin 9)	1	1.51e6	1.50e6	1.31e6	1.38e6
CG14298	1	1.41e6	1.55e6	9.75e5	1.01e6
Sos (Son of sevenless)	1	1.57e6	1.57e6	1.17e6	1.25e6
ABCB7 (ATP binding cassette subfamily B member 7)	1	1.41e6	1.38e6	1.03e6	1.24e6
dnt (doughnut on 2)	1	1.31e6	1.35e6	1.24e6	1.24e6
Cyp308a1 (Cytochrome P450 308a1)	1	1.50e6	1.59e6	1.05e6	1.11e6
Mpc1	1	1.73e6	1.70e6	1.31e6	1.32e6
Pgant4 (Polypeptide N-Acetylgalactosaminyltransferase 4)	1	1.55e6	1.55e6	1.21e6	1.37e6
Tfb1 (Transcription factor B1)	1	1.58e6	1.74e6	1.06e6	1.05e6
Neurochondrin	1	1.61e6	1.63e6	1.33e6	1.41e6
Hexim (Hexamethylene bisacetamide inducible)	1	1.34e6	1.41e6	1.10e6	1.15e6
PXo (P[[i]]-sensitive XPR1 orthologue)	1	1.47e6	1.51e6	1.24e6	1.17e6
topi (matotopetli)	1	1.65e6	1.64e6	1.25e6	1.36e6
CG12914	1	1.54e6	1.52e6	1.27e6	1.29e6
CG40583 (retired record)	1	1.47e6	1.63e6	1.11e6	1.10e6
Alg12 (Alg12 alpha-1,6-mannosyltransferase)	1	1.37e6	1.52e6	1.36e6	1.44e6
CG11247	1	1.31e6	1.37e6	1.06e6	1.18e6
CG4927	1	1.64e6	1.71e6	1.28e6	1.49e6
CG9166	1	1.17e6	1.28e6	9.92e5	1.23e6
Hmbs (Hydroxymethylbilane synthase)	1	1.37e6	1.45e6	1.19e6	1.12e6
Vha44 (Vacuolar H[+] ATPase 44kD subunit)	1	1.57e6	1.40e6	1.02e6	1.06e6
Vha44 (Vacuolar H[+] ATPase 44kD subunit)	2	1.50e6	1.52e6	1.11e6	1.22e6
CG4198	1	6.39e5		8.57e5	
Pisd (Phosphatidylserine decarboxylase)	1	1.53e6	1.54e6	1.02e6	1.12e6
Drgx (Dorsal root ganglia homeobox)	1	1.60e6	1.56e6	1.17e6	1.30e6
Drgx (Dorsal root ganglia homeobox)	2	1.62e6	1.41e6	1.13e6	1.28e6
CG3224	1	1.35e6	1.42e6	9.24e5	1.09e6
ND-B14.5AL (NADH dehydrogenase (ubiquinone) B14.5 A subunit-like)	1	1.70e6	1.69e6	1.27e6	1.39e6
SLO2 (slowpoke 2)	1	5.68e5 (active)	8.31e5	4.87e5	5.24e5
SLO2 (slowpoke 2)	2	1.64e6	1.70e6	1.41e6	1.51e6
SLO2 (slowpoke 2)	3	1.40e6	1.52e6	1.21e6	1.34e6
SLO2 (slowpoke 2)	4	1.46e6	1.58e6	1.19e6	1.28e6
SLO2 (slowpoke 2)	5	7.10e5 (active)	9.35e5	4.81e5	5.32e5

A few values from above:
CG3224, S2R+ cell number, rep 2 = 1.09e6
For “Kc cell number, rep 1”, TotA (Turandot A) reads 1.36e6
Under “S2R+ cell number, rep 1”, CG5823 has 1.14e6
Under “Kc cell number, rep 1”, CG4927 is entered as 1.64e6
Hmbs (Hydroxymethylbilane synthase), Kc cell number, rep 2 = 1.45e6
Under “S2R+ cell number, rep 2”, CG12947 is entered as 1.41e6
